In paper PMC5996148:
The list shows a part of the results. For some of these results: The source does not settle which construct or isoform was used.

By UniProt entry, the sequences of proteins in these tests, tags left out. Where a name states a change or a piece, a line headed by the entry shows the natural chain unless it says otherwise.
UniProt Q8IXJ9: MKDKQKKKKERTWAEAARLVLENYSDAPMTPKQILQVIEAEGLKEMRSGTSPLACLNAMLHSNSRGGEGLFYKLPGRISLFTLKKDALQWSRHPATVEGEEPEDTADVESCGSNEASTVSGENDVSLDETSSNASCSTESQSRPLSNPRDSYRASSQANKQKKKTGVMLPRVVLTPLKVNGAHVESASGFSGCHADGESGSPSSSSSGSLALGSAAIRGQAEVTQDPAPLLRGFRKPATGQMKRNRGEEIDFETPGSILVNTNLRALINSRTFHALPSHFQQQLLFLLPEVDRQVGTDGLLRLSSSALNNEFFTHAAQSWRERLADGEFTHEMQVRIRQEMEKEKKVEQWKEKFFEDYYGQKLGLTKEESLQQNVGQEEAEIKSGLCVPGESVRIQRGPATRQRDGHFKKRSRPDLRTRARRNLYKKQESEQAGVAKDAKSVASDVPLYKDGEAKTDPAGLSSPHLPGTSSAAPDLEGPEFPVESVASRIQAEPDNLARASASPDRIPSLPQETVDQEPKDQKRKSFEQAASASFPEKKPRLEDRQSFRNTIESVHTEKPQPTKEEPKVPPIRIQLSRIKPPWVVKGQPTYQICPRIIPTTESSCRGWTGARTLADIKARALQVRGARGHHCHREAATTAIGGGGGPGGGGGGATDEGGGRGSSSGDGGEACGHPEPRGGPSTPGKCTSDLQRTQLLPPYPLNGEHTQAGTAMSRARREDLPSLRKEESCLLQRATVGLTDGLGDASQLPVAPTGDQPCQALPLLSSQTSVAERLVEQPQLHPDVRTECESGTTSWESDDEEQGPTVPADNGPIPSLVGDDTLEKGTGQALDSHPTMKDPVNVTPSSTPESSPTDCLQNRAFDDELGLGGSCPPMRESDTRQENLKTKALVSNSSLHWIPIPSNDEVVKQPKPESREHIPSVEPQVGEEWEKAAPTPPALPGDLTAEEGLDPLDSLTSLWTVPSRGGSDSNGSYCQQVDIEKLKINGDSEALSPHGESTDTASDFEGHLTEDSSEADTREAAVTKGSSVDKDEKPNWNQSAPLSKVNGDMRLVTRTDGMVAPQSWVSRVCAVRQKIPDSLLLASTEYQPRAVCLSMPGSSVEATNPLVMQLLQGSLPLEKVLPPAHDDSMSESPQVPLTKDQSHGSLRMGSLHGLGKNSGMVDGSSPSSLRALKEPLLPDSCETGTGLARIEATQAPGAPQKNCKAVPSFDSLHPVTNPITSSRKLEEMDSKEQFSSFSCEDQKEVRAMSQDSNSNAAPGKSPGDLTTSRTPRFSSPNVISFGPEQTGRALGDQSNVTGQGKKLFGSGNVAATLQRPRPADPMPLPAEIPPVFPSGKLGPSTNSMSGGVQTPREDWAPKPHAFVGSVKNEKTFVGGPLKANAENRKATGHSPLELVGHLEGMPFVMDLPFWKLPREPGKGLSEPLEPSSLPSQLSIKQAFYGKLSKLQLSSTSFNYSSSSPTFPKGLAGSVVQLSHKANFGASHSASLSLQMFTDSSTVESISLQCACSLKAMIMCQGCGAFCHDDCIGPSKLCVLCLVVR

Experiments:
Assay in all cases: protein microarray (ProtoArray v5.0), streptavidin-Alexa Fluor 647
Conditions in all cases: 3'-biotin; 20 mM Tris (pH 7.5), 5 mM MgCl2, 100 mM KCl, 0.1% Tween-20, A/T-rich and random oligonucleotide blockers; temperature not stated; high values mean tight binding
[1] = test system: ASB13 (human)
[2] = test system: ASB6 (human)
[3] = test system: ASMTL (human)
[4] = target: T1, ASNS (UniProt P08243)
T1 sequence: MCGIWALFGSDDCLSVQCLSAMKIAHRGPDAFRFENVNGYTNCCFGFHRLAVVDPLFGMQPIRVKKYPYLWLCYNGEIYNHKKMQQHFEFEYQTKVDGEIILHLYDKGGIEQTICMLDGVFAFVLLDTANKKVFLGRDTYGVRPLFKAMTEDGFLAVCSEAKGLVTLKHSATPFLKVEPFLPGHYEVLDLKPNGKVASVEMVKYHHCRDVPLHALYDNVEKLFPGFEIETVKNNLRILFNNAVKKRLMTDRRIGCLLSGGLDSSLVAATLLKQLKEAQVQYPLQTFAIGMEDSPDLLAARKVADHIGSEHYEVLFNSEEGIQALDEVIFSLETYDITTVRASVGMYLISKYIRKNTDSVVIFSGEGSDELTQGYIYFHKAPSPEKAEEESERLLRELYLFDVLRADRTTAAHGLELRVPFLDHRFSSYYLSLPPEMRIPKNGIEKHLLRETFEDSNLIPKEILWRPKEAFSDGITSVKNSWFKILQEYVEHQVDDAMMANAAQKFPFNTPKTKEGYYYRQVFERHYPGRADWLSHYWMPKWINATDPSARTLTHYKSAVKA

[5] = target: ASXL1 (UniProt Q8IXJ9)
[6] = test system: ATF2 (human)
[7] = test system: ATF3 (human)
[8] = test system: ATG10 (human)
[9] = test system: ATG4A (human)
[10] = test system: ATG7 (human)

GGGGACAGGGGTATGGGGAGGGG [G4-3 biotinylated (CtG)]
binding signal [1]: -0.309 z-score
binding signal [2]: -0.329 z-score
binding signal [3]: -0.332 z-score
binding signal [4]: -0.339 z-score
binding signal [5]: 9.22 z-score
binding signal [6]: -0.32 z-score
binding signal [7]: -0.317 z-score
binding signal [8]: -0.32 z-score
binding signal [9]: -0.343 z-score
binding signal [10]: -0.289 z-score
